Reference: PubChem BioAssay AID1259261 (Sanger Institute, 2017)

Aim: 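siRNA screen across the kinome for kinases that are essential and partners synergising with drugs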 (primary screen)
Cell system: HCC2998 human colorectal cancer cells
Reagent: siRNA pool against human genes
Treatment: anchor drugs BYL719 1 µM, cetuximab 5 µg/ml or trametinib 10 nM, each compared with DMSO vehicle
Detection: 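Cell viability relative to non-targeting siRNA, averaged over replicates, with robust z-score for siRNA alone and synergy scores with each anchor drug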
Direction: viability z-score, knock-down alone: higher = more viable cells than controls
Rule for the call: 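a knock-down is called essential if its robust z-score without drug is under -3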
Meaning of the calls: active = essential; inactive = no change
In all, the deposit lists 794 reagents; shown is a random part of them. 10 of all reagents (1.3%) count as active. 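Calls reflect knock-down alone without drug; synergy scores with BYL719, cetuximab or trametinib do not affect calls.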 Not all columns of the deposit are shown. Not stated in the record: the amount of reagent, the time to read-out.

gene knocked down | viability z-score, knock-down alone | Outcome
CKMT1B | -0.206 | inactive
SPHK2 | -0.308 | inactive
CAMK2B | 0.503 | inactive
PRKD2 | 0.733 | inactive
CUL1 | 0.101 | inactive
LMBR1 | -0.081 | inactive
RPS6KA2 | -3.43 | active
CDK12 | -0.348 | inactive
BMPR2 | -0.107 | inactive
DGKA | -0.463 | inactive
CALM1 | 0.0686 | inactive
MARK4 | -1.38 | inactive
CAMKV | 0.742 | inactive
TEK | 1.21 | inactive
MAP2K7 | -0.132 | inactive
AK3 | 0.906 | inactive
SRPK1 | 0.214 | inactive
CSNK2A1 | 1.21 | inactive
PBK | -0.0897 | inactive
PKM | -0.538 | inactive
RYK | 0.31 | inactive
CDK11B | -0.649 | inactive
PRKX | 1.21 | inactive
RBKS | 0.353 | inactive
PI4K2A | 1.21 | inactive
MAP3K15 | 1.21 | inactive
NEK2 | 0.146 | inactive
DGKD | 0.508 | inactive
CDK9 | 0.471 | inactive
NRK | 0.295 | inactive
SMC1A | -2.17 | inactive
PDK4 | -1.51 | inactive
JAK2 | 0.434 | inactive
ARID1A | -1.29 | inactive
NTRK1 | -0.657 | inactive
CDK6 | -0.938 | inactive
GCK | -1.08 | inactive
TCF12 | -0.115 | inactive
HUS1 | -0.604 | inactive
TLK2 | 1.15 | inactive
MECOM | 0.13 | inactive
RPS6KA1 | 0.834 | inactive
PKIA | -0.279 | inactive
TNNI3K | 0.959 | inactive
AK5 | -0.79 | inactive
PRKAR2A | -0.201 | inactive
PRPS1L1 | 1.13 | inactive
MAP3K19 | -1.34 | inactive
DYRK1A | 0.229 | inactive
BCR | -0.236 | inactive
